The other results are listed elsewhere or left out. Most values lie at the level of the controls, where differences are scatter.

Amino acid sequences for entries named in this document (tags omitted). A change or cut given only in a name is not applied to a line headed by its entry.
UniProt P70175: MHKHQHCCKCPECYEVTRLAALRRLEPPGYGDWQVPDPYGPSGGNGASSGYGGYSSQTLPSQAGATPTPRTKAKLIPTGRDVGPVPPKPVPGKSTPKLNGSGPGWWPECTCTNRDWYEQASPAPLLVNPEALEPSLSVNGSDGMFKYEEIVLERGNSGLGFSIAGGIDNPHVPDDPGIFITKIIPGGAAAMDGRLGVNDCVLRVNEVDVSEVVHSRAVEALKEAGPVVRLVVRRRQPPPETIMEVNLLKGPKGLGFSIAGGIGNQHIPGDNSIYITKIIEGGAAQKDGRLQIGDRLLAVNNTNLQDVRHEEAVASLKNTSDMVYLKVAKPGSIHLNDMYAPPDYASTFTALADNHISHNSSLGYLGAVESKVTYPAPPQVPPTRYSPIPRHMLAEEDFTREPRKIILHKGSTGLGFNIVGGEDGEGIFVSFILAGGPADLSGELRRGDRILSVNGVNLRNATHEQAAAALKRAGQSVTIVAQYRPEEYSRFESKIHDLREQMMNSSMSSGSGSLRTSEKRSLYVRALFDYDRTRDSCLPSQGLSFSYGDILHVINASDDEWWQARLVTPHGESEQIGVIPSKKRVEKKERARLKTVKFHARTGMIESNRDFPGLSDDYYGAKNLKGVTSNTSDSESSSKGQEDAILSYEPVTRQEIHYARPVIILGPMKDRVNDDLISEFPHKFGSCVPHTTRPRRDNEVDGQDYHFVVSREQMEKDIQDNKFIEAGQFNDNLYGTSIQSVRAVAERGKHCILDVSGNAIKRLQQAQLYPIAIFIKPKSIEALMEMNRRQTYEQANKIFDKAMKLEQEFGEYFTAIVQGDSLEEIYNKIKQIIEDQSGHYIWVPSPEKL
UniProt P97298: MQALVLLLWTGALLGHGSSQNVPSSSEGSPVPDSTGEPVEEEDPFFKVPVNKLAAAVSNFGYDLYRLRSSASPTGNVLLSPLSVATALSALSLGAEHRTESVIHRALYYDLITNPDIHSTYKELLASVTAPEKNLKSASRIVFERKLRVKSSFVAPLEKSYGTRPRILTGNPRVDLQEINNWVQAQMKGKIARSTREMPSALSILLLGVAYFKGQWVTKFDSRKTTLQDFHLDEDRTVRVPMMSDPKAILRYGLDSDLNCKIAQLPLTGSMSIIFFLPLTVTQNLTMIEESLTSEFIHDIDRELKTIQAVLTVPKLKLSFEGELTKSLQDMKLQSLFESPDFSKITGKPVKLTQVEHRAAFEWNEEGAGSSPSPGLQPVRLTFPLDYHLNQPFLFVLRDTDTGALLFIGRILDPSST
UniProt P70248: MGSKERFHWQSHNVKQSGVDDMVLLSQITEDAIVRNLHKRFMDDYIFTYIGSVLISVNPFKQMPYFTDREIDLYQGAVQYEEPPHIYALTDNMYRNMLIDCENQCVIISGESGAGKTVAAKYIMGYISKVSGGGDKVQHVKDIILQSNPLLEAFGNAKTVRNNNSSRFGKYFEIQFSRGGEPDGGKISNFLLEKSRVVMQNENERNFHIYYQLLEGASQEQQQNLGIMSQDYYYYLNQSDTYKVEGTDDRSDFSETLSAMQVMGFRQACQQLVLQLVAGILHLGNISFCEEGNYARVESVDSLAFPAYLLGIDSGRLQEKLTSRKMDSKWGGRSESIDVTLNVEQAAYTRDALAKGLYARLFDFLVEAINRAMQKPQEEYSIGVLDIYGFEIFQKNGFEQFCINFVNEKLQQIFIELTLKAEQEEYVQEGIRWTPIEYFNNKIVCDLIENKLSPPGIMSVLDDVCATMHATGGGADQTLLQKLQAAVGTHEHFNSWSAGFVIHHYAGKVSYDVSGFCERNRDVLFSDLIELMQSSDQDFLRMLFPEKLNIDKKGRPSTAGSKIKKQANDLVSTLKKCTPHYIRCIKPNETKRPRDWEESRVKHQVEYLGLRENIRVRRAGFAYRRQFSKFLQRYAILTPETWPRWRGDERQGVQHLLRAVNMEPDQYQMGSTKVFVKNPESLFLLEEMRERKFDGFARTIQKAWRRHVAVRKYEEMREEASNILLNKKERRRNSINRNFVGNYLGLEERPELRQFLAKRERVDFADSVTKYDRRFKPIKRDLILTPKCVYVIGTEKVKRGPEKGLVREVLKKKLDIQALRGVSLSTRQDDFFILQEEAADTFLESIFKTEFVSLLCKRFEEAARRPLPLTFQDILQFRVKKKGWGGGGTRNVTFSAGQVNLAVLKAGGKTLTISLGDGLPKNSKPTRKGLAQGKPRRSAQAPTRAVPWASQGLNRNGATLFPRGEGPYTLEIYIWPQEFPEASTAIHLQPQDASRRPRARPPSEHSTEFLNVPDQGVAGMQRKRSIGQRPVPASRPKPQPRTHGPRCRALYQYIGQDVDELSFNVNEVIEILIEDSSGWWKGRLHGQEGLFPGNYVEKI
UniProt P97352: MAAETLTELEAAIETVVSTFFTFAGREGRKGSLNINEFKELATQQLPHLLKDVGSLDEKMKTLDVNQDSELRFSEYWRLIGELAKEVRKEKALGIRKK
UniProt Q00899, whole entry: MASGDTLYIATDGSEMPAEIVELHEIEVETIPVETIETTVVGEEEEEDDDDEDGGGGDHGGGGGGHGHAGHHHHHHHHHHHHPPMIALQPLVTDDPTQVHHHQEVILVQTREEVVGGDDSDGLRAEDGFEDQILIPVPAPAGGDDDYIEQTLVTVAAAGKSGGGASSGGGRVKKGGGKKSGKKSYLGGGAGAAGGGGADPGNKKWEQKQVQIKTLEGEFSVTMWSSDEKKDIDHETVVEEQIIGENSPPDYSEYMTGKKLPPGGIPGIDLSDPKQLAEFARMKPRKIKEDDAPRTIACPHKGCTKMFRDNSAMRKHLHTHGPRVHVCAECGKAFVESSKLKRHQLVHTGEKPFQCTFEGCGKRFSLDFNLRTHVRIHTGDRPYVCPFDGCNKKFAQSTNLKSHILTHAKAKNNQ
UniProt P97440, whole entry, looked up: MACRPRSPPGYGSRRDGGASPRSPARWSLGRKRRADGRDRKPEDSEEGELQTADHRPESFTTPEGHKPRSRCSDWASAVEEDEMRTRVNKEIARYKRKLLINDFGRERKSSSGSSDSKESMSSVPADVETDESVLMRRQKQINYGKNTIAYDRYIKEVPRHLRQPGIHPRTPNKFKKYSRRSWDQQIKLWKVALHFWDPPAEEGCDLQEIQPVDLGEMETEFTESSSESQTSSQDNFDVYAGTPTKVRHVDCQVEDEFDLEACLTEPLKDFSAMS
UniProt P97873: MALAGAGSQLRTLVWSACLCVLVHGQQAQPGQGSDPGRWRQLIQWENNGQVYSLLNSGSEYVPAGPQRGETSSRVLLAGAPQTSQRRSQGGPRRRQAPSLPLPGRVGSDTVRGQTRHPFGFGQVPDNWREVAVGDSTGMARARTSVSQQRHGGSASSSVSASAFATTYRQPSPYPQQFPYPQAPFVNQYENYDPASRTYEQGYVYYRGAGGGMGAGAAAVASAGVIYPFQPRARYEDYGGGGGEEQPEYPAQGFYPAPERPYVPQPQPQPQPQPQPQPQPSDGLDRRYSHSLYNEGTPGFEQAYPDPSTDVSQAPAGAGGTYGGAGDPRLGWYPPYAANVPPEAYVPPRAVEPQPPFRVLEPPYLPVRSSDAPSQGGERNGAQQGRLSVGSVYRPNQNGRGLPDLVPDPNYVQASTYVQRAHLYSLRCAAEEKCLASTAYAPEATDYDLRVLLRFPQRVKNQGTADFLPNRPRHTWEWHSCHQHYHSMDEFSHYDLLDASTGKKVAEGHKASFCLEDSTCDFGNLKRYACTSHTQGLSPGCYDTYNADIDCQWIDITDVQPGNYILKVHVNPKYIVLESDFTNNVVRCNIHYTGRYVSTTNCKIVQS
UniProt P99027, whole entry: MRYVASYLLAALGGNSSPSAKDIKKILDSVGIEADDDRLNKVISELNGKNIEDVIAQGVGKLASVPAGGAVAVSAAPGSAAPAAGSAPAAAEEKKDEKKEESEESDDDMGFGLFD
UniProt P97310, whole entry: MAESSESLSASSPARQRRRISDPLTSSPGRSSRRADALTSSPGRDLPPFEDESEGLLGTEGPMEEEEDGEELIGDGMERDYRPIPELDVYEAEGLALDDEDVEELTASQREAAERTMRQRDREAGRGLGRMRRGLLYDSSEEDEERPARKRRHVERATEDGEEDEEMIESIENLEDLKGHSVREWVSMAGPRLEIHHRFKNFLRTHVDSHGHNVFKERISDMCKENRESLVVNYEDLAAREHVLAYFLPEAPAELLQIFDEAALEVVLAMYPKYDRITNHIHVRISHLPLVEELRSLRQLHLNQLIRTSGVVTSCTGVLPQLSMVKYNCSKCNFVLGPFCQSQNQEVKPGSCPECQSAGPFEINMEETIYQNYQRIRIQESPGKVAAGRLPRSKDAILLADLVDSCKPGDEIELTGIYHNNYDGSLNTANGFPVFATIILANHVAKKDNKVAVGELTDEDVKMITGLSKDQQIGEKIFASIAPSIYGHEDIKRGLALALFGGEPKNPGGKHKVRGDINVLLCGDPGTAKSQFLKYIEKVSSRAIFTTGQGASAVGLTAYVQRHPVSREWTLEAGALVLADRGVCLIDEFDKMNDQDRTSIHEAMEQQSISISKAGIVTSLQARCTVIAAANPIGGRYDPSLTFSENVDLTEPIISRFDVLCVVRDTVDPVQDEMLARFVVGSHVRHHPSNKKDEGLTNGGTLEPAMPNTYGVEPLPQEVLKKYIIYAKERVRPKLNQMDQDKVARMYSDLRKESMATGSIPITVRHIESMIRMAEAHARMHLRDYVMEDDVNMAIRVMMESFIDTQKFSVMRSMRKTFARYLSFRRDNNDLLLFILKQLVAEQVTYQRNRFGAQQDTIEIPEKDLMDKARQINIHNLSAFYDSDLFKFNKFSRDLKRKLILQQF
UniProt P97808: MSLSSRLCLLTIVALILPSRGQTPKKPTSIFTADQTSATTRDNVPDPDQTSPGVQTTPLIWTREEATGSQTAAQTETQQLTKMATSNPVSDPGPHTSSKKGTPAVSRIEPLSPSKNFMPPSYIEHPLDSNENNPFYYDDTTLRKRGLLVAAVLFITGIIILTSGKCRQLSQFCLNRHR
UniProt P70444: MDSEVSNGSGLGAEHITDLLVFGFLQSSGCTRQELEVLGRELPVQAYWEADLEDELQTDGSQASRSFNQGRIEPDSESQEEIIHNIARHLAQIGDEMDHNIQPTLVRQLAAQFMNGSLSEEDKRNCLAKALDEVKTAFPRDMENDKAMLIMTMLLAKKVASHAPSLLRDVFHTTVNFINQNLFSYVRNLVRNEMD
UniProt P70698: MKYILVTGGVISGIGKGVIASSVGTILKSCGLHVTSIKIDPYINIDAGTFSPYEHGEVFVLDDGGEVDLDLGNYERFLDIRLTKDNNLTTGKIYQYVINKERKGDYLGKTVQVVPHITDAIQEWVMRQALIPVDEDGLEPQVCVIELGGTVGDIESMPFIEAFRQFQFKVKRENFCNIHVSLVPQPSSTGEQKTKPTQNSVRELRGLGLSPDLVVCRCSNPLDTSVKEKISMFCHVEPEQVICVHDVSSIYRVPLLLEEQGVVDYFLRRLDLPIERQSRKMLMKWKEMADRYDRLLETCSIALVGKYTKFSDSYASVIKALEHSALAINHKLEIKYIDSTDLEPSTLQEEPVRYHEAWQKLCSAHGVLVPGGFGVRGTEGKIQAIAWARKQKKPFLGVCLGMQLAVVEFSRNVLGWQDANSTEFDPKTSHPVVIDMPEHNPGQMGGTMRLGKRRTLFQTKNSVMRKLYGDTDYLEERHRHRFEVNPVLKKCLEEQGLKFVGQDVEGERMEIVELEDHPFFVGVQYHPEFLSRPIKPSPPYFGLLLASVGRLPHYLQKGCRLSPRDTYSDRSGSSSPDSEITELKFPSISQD
UniProt P97821: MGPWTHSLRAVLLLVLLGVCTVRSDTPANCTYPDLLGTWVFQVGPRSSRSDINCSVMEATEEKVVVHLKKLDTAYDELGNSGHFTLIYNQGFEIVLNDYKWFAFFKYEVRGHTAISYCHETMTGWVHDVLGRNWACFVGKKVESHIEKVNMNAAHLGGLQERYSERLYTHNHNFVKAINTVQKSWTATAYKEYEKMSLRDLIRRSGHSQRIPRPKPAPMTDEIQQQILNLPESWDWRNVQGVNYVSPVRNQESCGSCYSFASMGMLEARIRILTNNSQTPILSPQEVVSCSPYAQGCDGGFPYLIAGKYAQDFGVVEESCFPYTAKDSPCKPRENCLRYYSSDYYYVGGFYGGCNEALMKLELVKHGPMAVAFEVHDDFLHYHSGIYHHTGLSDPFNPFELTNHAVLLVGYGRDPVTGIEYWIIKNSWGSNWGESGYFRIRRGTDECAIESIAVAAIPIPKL
UniProt Q00915: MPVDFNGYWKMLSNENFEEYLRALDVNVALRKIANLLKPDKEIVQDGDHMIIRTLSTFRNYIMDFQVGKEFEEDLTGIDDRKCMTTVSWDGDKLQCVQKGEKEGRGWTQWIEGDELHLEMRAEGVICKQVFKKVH
UniProt P97765: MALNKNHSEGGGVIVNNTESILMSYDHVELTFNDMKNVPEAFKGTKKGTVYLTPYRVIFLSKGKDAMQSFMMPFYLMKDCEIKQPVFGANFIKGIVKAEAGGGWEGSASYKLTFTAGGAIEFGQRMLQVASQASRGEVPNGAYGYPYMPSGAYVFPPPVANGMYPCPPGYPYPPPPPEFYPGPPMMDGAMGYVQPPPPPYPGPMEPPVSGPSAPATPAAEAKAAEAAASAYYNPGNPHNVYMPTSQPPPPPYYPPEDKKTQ

Compound in this experiment: CN[C@@H]1C[C@H]2O[C@@](C)([C@@H]1OC)n1c3ccccc3c3c4c(c5c6ccccc6n2c5c31)C(=O)NC4 [staurosporine]
The experiment is described as follows: log2 fold change of tryptic peptide abundance, ligand vs vehicle (limited proteolysis) (log2 ratio); higher = more trypsin-susceptible (destabilized). Conditions: ligand concentration: 20 uM; sample: mouse liver crude lysate; replicate design: treated separately.
“UniProt P70175 (peptide sequence: RDNEVDGQDYHFVVSR, peptide start residue: 696)”: the log2 fold change stood at 0.328. Next, “UniProt P97298 (peptide sequence: VPMMSDPK, peptide start residue: 240)”: 0.557; “UniProt Q00PI9 (peptide sequence: YGGQPLFSEK, peptide start residue: 262)”: 0.255; “UniProt P97813 (peptide sequence: FAVTHSPAR, peptide start residue: 129)”: -0.223. As to “UniProt P70213 (peptide sequence: MHINDLK, peptide start residue: 107)”, the log2 fold change turned out to be 0.305.

Turning to “UniProt P86048 (peptide sequence: MLSCAGADRLQTGMR, peptide start residue: 102)”, the log2 fold change is -0.167. As for “UniProt P70295 (peptide sequence: LTPADKAEHMK, peptide start residue: 259)”, the log2 fold change came out at 0.248. With “UniProt P97314 (peptide sequence: GYGYGQGAGTLNMDRGER, peptide start residue: 70)” the figure was -0.243; with “UniProt P70248 (peptide sequence: EEASNILLNKK, peptide start residue: 718)”, 0.358. Next, “UniProt P97927 (peptide sequence: DSHCHLSSSPR, peptide start residue: 1447)”: 0.699.

Take “UniProt Q00898 (peptide sequence: KPFDPENTK, peptide start residue: 214)”: the log2 fold change turned out to be 0.266. Take “UniProt P97352 (peptide sequence: DVGSLDEKMK, peptide start residue: 52)”: the log2 fold change turned out to be 0.373. With “UniProt P97480 (peptide sequence: KADASSSQDSELER, peptide start residue: 228)” the figure was 0.306; with “UniProt Q00899 (peptide sequence: KIKEDDAPR, peptide start residue: 286)”, 0.236. Next, “UniProt P70269 (peptide sequence: AQGQLSEFWR, peptide start residue: 39)”: 0.366. Next, “UniProt P97440 (peptide sequence: KLLINDFGR, peptide start residue: 98)”: 0.439. In the case of “UniProt P70170 (peptide sequence: VKPPEDLQDLGVR, peptide start residue: 202)”, the log2 fold change was 0.488. For “UniProt P97873 (peptide sequence: EVAVGDSTGMAR, peptide start residue: 130)”, the log2 fold change was found to be 0.594. Next, “UniProt P99027 (peptide sequence: ILDSVGIEADDDRLNK, peptide start residue: 26)”: -0.101; “UniProt P85094 (peptide sequence: DASHPQFK, peptide start residue: 171)”: -0.165; “UniProt P97310 (peptide sequence: FVVGSHVR, peptide start residue: 678)”: 0.2. With “UniProt P70326 (peptide sequence: RMFPSYKVK, peptide start residue: 100)” the figure was 0.155; with “UniProt P70257 (peptide sequence: KPPCCVLSNPDQK, peptide start residue: 122)”, -0.548. Next, “UniProt P70699 (peptide sequence: EGAELQLR, peptide start residue: 896)”: 0.166; “UniProt P97808 (peptide sequence: IEPLSPSK, peptide start residue: 108)”: -0.301; “UniProt P97369 (peptide sequence: IPALNAYMK, peptide start residue: 106)”: 0.272. For “UniProt P70444 (peptide sequence: VASHAPSLLR, peptide start residue: 159)”, the log2 fold change amounted to 0.404.

Take “UniProt P81117 (peptide sequence: LDALQDTGMNHHLLLK, peptide start residue: 122)”: the log2 fold change is 0.21. With “UniProt P98203 (peptide sequence: SVENCVCIMR, peptide start residue: 569)” the figure was -0.552.

As for “UniProt P70698 (peptide sequence: IYQYVINK, peptide start residue: 93)”, the log2 fold change is -0.193.

As for “UniProt P97821 (peptide sequence: VNMNAAHLGGLQER, peptide start residue: 149)”, the log2 fold change amounted to 0.297. As to “UniProt P70266 (peptide sequence: GKTYISTK, peptide start residue: 54)”, the log2 fold change was -0.524. With “UniProt P70280 (peptide sequence: AFSFLNEVK, peptide start residue: 75)” the figure was -0.323; with “UniProt P97820 (peptide sequence: SKPSFHAPEPKPHYDPADR, peptide start residue: 514)”, 0.494; with “UniProt Q00915 (peptide sequence: PVDFNGYWK, peptide start residue: 2)”, 0.0729. Turning to “UniProt P97765 (peptide sequence: NVPEAFKGTK, peptide start residue: 37)”, the log2 fold change was -0.547.

The values above are taken from the supplement of paper PMC12819154, “High-throughput peptide-centric local stability assay extends protein–ligand identification to membrane proteins, tissues and bacteria” (Nature Structural & Molecular Biology, 2025).
